Results: the supplement of paper PMC10849652
The other results are listed elsewhere or left out.

By UniProt entry, the sequences of proteins in these tests, tags left out. Where a name states a change or a piece, a line headed by the entry shows the natural chain unless it says otherwise.
UniProt Q5SXM8: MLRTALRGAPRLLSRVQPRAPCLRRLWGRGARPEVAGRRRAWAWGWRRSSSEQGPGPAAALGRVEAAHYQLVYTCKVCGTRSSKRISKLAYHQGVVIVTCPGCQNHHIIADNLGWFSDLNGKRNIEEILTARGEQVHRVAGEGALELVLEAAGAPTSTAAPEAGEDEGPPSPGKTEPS
UniProt Q9BV94: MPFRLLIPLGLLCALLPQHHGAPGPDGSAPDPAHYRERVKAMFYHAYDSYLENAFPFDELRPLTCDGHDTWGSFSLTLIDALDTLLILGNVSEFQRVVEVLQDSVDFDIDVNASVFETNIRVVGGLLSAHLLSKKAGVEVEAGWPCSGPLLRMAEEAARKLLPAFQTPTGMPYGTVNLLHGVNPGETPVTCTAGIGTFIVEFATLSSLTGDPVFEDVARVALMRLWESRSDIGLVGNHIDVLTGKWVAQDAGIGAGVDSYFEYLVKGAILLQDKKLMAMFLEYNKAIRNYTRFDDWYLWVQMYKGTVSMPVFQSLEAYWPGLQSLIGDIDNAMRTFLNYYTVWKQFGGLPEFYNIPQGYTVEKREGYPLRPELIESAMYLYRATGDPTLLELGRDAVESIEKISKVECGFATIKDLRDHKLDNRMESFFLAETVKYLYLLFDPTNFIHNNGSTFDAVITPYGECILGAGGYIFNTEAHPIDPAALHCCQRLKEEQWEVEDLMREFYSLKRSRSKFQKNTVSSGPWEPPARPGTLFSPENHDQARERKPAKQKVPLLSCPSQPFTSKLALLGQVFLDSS
UniProt Q7L591: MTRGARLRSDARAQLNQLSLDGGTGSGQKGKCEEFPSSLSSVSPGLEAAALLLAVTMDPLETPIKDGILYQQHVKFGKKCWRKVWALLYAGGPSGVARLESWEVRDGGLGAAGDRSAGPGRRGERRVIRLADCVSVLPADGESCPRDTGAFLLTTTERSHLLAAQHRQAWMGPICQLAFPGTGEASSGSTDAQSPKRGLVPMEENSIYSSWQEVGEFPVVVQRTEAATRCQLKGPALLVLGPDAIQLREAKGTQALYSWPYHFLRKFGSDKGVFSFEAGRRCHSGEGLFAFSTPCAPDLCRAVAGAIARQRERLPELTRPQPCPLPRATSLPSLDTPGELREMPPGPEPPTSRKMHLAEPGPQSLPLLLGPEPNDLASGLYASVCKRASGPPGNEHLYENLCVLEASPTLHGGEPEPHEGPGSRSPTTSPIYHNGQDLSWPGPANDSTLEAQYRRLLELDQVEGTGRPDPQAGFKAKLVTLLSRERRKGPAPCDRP
UniProt Q9H8V3: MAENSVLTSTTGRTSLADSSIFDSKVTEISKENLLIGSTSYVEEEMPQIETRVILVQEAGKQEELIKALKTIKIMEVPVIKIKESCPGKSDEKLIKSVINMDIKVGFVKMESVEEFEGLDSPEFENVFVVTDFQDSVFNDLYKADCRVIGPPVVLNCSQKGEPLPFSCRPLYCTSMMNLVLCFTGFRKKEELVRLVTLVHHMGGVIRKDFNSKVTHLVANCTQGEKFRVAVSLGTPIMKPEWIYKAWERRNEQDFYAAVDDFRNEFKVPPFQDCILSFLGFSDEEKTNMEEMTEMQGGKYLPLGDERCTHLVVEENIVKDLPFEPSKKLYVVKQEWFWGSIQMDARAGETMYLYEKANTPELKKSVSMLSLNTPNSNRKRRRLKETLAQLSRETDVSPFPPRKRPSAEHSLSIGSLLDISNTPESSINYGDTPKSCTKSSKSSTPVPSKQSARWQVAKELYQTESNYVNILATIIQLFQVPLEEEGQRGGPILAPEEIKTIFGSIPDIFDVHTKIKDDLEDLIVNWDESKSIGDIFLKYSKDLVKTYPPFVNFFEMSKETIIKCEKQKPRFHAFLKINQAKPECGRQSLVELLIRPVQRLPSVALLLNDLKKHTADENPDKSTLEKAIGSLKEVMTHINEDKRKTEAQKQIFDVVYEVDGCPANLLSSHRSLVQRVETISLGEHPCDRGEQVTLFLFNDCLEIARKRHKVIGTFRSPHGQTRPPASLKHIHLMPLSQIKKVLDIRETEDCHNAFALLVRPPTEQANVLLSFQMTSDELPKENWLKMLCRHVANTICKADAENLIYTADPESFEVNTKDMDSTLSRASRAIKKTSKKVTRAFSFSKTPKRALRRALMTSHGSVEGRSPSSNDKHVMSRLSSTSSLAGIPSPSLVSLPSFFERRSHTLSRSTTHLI
UniProt Q05193: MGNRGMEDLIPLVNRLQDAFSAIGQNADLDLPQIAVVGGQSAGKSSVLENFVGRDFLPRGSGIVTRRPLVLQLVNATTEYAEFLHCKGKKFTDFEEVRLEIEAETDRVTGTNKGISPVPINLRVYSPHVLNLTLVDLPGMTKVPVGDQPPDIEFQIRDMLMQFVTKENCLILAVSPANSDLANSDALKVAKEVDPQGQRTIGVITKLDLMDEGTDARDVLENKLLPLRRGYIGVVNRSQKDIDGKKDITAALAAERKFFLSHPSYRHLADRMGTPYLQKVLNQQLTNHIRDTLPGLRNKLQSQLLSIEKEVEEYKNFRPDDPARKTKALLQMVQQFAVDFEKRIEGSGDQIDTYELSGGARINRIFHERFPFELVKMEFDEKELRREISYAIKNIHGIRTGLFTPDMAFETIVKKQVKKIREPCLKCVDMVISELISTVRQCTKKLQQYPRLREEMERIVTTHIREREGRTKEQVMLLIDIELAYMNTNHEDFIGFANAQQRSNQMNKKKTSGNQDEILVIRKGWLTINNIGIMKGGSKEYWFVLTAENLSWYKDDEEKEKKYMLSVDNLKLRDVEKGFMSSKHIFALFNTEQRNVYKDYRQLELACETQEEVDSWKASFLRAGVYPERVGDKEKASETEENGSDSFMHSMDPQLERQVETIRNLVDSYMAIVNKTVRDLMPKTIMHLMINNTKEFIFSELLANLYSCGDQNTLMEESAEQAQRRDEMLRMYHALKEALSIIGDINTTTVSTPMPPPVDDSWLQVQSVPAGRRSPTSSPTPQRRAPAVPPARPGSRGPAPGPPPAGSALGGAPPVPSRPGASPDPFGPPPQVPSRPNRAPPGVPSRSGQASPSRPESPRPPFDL
UniProt O77932: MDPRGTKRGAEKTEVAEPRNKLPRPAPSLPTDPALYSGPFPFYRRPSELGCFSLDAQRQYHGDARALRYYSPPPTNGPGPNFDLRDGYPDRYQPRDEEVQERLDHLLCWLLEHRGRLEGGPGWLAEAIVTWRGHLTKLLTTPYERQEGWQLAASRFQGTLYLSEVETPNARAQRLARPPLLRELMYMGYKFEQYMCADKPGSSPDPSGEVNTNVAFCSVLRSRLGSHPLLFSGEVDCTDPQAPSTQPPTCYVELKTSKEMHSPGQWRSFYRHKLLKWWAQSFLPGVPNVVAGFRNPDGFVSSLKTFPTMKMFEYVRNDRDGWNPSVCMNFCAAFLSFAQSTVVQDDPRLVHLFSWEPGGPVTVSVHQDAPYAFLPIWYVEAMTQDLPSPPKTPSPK
UniProt Q4LDG9: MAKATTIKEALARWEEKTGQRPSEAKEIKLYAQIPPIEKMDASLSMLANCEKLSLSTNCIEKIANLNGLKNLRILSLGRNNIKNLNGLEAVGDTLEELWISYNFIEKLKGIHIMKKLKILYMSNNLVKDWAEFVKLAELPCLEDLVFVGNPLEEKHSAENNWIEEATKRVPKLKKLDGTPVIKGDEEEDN
UniProt Q6P1R4: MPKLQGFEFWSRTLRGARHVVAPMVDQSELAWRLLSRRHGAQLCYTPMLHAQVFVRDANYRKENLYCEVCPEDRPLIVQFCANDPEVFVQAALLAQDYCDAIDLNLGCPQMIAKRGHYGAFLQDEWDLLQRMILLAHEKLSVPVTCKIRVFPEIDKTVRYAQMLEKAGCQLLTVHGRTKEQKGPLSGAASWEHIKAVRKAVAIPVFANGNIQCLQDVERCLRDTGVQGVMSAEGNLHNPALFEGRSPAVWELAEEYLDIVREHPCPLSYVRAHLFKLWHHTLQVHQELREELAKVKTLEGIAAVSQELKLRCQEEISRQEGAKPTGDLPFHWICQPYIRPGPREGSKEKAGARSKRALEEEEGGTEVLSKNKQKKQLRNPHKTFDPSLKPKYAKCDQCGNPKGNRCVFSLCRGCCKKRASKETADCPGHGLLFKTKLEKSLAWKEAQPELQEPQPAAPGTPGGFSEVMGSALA
UniProt Q5JWR5: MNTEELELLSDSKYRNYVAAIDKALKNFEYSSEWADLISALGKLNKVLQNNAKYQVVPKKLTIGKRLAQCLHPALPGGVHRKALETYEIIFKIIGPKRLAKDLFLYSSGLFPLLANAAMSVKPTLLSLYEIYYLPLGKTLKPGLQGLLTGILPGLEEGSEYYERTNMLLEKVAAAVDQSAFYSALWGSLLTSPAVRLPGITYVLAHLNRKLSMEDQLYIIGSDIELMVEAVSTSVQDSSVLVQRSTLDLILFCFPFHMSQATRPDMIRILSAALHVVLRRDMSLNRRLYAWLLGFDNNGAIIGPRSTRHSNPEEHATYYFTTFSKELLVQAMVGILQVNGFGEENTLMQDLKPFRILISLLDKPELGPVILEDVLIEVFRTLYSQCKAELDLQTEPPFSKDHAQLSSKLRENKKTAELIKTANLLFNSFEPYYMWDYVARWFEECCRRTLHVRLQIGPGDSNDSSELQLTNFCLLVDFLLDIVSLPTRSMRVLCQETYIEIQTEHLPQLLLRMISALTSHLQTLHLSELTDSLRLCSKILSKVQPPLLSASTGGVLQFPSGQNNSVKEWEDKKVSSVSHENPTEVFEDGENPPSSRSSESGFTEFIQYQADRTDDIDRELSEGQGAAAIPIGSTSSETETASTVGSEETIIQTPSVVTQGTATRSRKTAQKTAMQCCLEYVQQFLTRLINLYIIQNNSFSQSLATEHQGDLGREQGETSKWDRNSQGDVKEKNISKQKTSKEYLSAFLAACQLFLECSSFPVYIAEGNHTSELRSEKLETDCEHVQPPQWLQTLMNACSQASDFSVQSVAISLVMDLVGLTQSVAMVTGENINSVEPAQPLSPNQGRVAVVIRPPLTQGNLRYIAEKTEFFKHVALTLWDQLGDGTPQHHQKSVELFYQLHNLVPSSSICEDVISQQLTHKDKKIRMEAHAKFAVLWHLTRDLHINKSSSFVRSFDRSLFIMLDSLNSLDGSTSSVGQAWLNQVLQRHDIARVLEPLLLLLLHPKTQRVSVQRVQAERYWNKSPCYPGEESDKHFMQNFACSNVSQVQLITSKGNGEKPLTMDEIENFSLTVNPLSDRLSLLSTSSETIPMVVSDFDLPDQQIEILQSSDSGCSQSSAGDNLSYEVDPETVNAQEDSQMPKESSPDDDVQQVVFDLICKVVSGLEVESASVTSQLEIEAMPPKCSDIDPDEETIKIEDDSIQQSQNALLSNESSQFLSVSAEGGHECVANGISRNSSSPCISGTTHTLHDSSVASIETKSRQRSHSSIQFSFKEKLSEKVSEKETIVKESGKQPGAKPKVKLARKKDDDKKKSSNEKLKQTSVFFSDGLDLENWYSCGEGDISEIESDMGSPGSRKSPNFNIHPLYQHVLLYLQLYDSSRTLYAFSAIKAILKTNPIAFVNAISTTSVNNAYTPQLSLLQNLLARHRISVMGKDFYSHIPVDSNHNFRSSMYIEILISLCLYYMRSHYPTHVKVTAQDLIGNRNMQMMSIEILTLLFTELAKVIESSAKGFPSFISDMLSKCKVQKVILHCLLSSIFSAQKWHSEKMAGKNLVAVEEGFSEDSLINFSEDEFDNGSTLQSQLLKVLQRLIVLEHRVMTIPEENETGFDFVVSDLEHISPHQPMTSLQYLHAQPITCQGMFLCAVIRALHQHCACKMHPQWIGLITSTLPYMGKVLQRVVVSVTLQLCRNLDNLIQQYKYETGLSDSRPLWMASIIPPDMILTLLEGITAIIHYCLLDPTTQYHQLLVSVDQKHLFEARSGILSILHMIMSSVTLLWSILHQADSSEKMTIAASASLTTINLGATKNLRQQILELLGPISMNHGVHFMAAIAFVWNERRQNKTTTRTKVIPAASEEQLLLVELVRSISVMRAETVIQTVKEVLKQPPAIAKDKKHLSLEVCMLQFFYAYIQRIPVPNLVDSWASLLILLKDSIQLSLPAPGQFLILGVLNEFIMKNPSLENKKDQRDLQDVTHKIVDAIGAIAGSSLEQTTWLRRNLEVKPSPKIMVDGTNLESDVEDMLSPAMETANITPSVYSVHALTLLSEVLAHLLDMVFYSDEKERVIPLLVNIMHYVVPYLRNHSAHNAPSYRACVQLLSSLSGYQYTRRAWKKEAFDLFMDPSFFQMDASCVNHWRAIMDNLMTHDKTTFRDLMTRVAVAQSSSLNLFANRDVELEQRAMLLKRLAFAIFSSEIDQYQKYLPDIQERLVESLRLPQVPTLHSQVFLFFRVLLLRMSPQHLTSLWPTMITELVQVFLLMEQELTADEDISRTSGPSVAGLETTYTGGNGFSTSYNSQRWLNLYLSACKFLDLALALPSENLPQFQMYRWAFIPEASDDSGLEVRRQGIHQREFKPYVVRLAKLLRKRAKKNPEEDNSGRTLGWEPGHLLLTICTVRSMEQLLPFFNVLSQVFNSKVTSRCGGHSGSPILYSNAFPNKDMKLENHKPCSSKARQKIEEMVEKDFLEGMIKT

Columns and labels:
Assay in all cases: log2 fold change, soluble protein after heating vs DMSO (PISA); higher = thermal stabilisation; K562 cells, 10 uM, 30 min; active = over 0.2 and 3.5 SD of the protein, either way, in both replicates (recomputed)
[1] = compound: NC(=O)Nc1cc(-c2cccc(F)c2)sc1C(=O)N[C@H]1CCCNC1
How it was run: (§1)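 K562 cells at 2×10^6 cells/mL were treated for 30 min with 10 μM compound, and aliquots were heated for 3 min over 48°C-58°C before pooling. Extraction used PBS with 0.5% NP-40 at 4°C, and soluble protein was the supernatant after 21,000xg for 90 min, measured by TMTpro 16plex LC-MS/MS with channel sums equalised. Thermal stability values, relative to control samples and from duplicates, are log2 fold changes.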

[2] = compound: NC(=O)c1cnc(N[C@@H]2CCCC[C@@H]2N)nc1Nc1cccc(-n2nccn2)c1
How it was run: as §1

[3] = compound: NC1(c2ccc(-c3nc4ccn5c(=O)[nH]nc5c4cc3-c3ccccc3)cc2)CCC1
How it was run: as §1

[4] = compound: NCC(=O)Nc1ccc(-n2nc(C(F)(F)F)cc2-c2ccc3c(ccc4ccccc43)c2)cc1
How it was run: as §1

entinostat = compound: Nc1ccccc1NC(=O)c1ccc(CNC(=O)OCc2cccnc2)cc1 [entinostat]
How it was run: as §1

citarinostat = compound: O=C(CCCCCCNC(=O)c1cnc(N(c2ccccc2)c2ccccc2Cl)nc1)NO [citarinostat]
How it was run: as §1

silmitasertib = compound: O=C(O)c1ccc2c(c1)nc(Nc1cccc(Cl)c1)c1ccncc12 [silmitasertib]
How it was run: as §1

[5] = compound: O=C1NC(=O)C(c2cnc3ccccn23)=C1c1cn2c3c(cc(F)cc13)CN(C(=O)N1CCCCC1)CC2
How it was run: as §1

[6] = compound: c1cc(OCCN2CCCCC2)cc(-c2n[nH]c3ccc(-c4nnc[nH]4)cc23)c1
How it was run: as §1

entospletinib = compound: c1cn2cc(-c3ccc4cn[nH]c4c3)nc(Nc3ccc(N4CCOCC4)cc3)c2n1 [entospletinib]
How it was run: as §1

vorinostat = compound: O=C(CCCCCCC(=O)Nc1ccccc1)NO [vorinostat]
How it was run: as §1

Measured: log2 fold change

DRAM2 (UniProt Q6UX65)
inactive: [1] 0.042 | [2] -0.007 | [3] -0.311 | [4] -0.163 | entinostat -0.008 | citarinostat 0.133 | silmitasertib 0.104 | [5] 0.023 | [6] -0.138 | entospletinib -0.056

EAF1 (UniProt Q96JC9)
inactive: [1] -0.167 | [2] -0.037 | [3] 0.037 | [4] 0.024 | entinostat 0.03 | vorinostat -0.186 | citarinostat -0.045 | silmitasertib -0.003 | [5] -0.024 | [6] 0.051 | entospletinib -0.074

DNLZ (UniProt Q5SXM8)
inactive: [1] 0.031 | [2] -0.016 | [3] 0.068 | [4] 0.027 | entinostat -0.024 | citarinostat 0.037 | silmitasertib 0.052 | [5] -0.194 | [6] 0.128 | entospletinib -0.029

EDEM2 (UniProt Q9BV94)
inactive: [1] 0.004 | [2] -0.108 | [3] -0.054 | [4] -0.039 | entinostat -0.003 | vorinostat 0.001 | silmitasertib 0.027 | [5] -0.029

DNPEP (UniProt B9ZVU2)
inactive: [1] 0.093 | [2] 0.003 | [3] 0.03 | [4] 0.154 | entinostat -0.033 | vorinostat 0.011 | citarinostat 0.012 | silmitasertib -0.048 | [6] 0.022 | entospletinib 0.008

EAPP (UniProt Q56P03)
inactive: [1] 0.137 | [2] 0.047 | [3] 0.141 | [4] 0.038 | entinostat -0.046 | vorinostat 0.029 | citarinostat -0.143 | silmitasertib 0.089 | [6] 0.111 | entospletinib -0.03

DNPEP (UniProt C9JBE1)
inactive: [1] -0.21 | [3] -0.011 | [4] -0.393 | entinostat 0.008 | vorinostat -0.191 | silmitasertib -0.016 | [5] -0.318

DYNC2LI1 isoform 2 (UniProt Q8TCX1)
inactive: [1] -0.015 | [3] 0.059 | [4] -0.229 | entinostat 0.033 | silmitasertib -0.038 | [5] 0.176

DPY19L4 (UniProt Q7Z388)
inactive: [1] 0.061 | [2] -0.126 | [3] -0.16 | [4] -0.068 | entinostat 0.228 | vorinostat 0.074 | citarinostat 0.008 | silmitasertib 0.071 | [5] -0.087 | [6] -0.208 | entospletinib 0.036

DOK3 (UniProt Q7L591)
inactive: [1] 0.008 | [2] -0.09 | [3] 0.51 | [4] -0.062 | entinostat -0.04 | vorinostat -0.233 | silmitasertib -0.052 | [5] -0.011

DOCK1 (UniProt Q14185)
inactive: [1] 0.061 | [2] -0.143 | [4] -0.391 | entinostat -0.013 | citarinostat 0.049 | [5] -0.157 | [6] -0.105 | entospletinib -0.086

DNPH1 (UniProt H0Y8X4)
inactive: [2] -0.023 | [3] -0.048 | silmitasertib 0.113

DNM2 isoform 4 (UniProt P50570)
inactive: [1] -0.033 | [3] -0.318 | entinostat 0.342 | vorinostat -0.068 | citarinostat -0.113 | silmitasertib 0.116 | [5] 0.19 | [6] 0.06

ECT2 isoform 3 (UniProt Q9H8V3)
inactive: [1] 0.246 | entinostat 0.188 | citarinostat 0.087 | [5] -0.258 | [6] -0.146 | entospletinib -0.167

DNAJB1 (UniProt M0R128)
inactive: [4] -0.151

DNM1 (UniProt Q05193)
inactive: [4] 0.058 | vorinostat 0.029 | [5] -0.448

DXO (UniProt O77932)
inactive: [2] 0.044 | [3] -0.147 | [4] 0.029 | vorinostat 0.099 | citarinostat -0.139 | silmitasertib -0.032 | [5] -0.129 | [6] -0.039 | entospletinib -0.145

DOCK10 (UniProt Q96BY6)
inactive: [3] -0.743 | [4] 0.149 | citarinostat 0.024 | silmitasertib 0.102 | [6] -0.284 | entospletinib -0.066

ECM1 isoform 2 (UniProt Q16610)
inactive: [2] 0.332 | [3] 0.213 | [4] -0.152 | silmitasertib 0.104

DNAJC30 (UniProt Q96LL9)
inactive: [2] 0.067

DNMT3B (UniProt Q9UBC3)
inactive: vorinostat 0.517

DNAL1 (UniProt Q4LDG9)
inactive: [2] 0.035 | [4] 0.05 | [5] -0.26

DUSP9 (UniProt Q99956)
inactive: [1] -0.128 | [4] -0.147 | entinostat 0.067 | [5] 0.137

DRAP1 (UniProt E9PQX9)
inactive: [2] -0.012 | [3] 0.104 | silmitasertib -0.085

DYNLT3 (UniProt P51808)
inactive: [2] 0.046 | citarinostat 0.021 | [6] -0.066 | entospletinib 0.045

DUS1L (UniProt Q6P1R4)
inactive: [3] -0.132 | vorinostat -0.007 | silmitasertib 0.435

DROSHA (UniProt Q9NRR4)
inactive: [2] 0.004 | [5] 0.412

DOCK11, A0A0J9YW64
inactive: [1] -0.075 | [3] -0.112 | entinostat -0.053 | citarinostat 0.006 | silmitasertib 0.159 | [6] -0.077 | entospletinib 0.118

DPY19L2 (UniProt Q6NUT2)
inactive: [2] 0.088 | [3] 0.123 | [4] 0.028 | vorinostat 0.004 | citarinostat 0.046 | silmitasertib -0.009 | [6] -0.127 | entospletinib 0.075

DPCD (UniProt Q9BVM2)
inactive: [2] -0.224 | [4] -0.026 | vorinostat -0.144

DOP1A (UniProt Q5JWR5)
inactive: [3] 0.106 | [4] -0.051 | silmitasertib -0.056 | [5] 0

DNAJB14 (UniProt H7C494)
inactive: [3] -0.046 | [4] 0.006 | vorinostat 0.074 | silmitasertib -0.102

DUSP14 (UniProt O95147)
inactive: [2] -0.007 | [3] -0.226 | [4] -0.052 | vorinostat 0.067 | silmitasertib -0.089 | [5] 0.146

DPYSL3 isoform 2 (UniProt Q14195)
inactive: [4] -0.068 | vorinostat 0.457

DNAJC15 (UniProt Q9Y5T4)
inactive: [1] -0.002 | entinostat 0.02

EDRF1 (UniProt Q3B7T1)
inactive: [1] -0.062 | [3] -0.044 | entinostat -0.055 | vorinostat 0.083 | citarinostat -0.044 | silmitasertib -0.031 | [5] -0.057 | [6] -0.103

DOLPP1 (UniProt Q86YN1)
inactive: [2] -0.102 | [3] -0.053 | [4] -0.003 | citarinostat 0.075 | silmitasertib 0.008 | [6] -0.007

DSTYK (UniProt Q6XUX3)
inactive: [4] -0.077 | vorinostat 0.049 | citarinostat 0.161 | [5] -0.059 | [6] -0.141 | entospletinib -0.105

DNAJB2 (UniProt P25686)
inactive: vorinostat -0.018 | citarinostat 0.045 | [5] 0.042 | [6] -0.041 | entospletinib -0.036

DNAJC14 (UniProt Q6Y2X3)
inactive: [3] -0.036 | silmitasertib -0.116

Copied from the listing (13 entries):
DOCK11, A0A0J9YW64
inactive: [1] -0.075 | [3] -0.112 | entinostat -0.053 | citarinostat 0.006 | silmitasertib 0.159 | [6] -0.077 | entospletinib 0.118

DPY19L2 (UniProt Q6NUT2)
inactive: [2] 0.088 | [3] 0.123 | [4] 0.028 | vorinostat 0.004 | citarinostat 0.046 | silmitasertib -0.009 | [6] -0.127 | entospletinib 0.075

DPCD (UniProt Q9BVM2)
inactive: [2] -0.224 | [4] -0.026 | vorinostat -0.144

DOP1A (UniProt Q5JWR5)
inactive: [3] 0.106 | [4] -0.051 | silmitasertib -0.056 | [5] 0

DNAJB14 (UniProt H7C494)
inactive: [3] -0.046 | [4] 0.006 | vorinostat 0.074 | silmitasertib -0.102

DUSP14 (UniProt O95147)
inactive: [2] -0.007 | [3] -0.226 | [4] -0.052 | vorinostat 0.067 | silmitasertib -0.089 | [5] 0.146

DPYSL3 isoform 2 (UniProt Q14195)
inactive: [4] -0.068 | vorinostat 0.457

DNAJC15 (UniProt Q9Y5T4)
inactive: [1] -0.002 | entinostat 0.02

EDRF1 (UniProt Q3B7T1)
inactive: [1] -0.062 | [3] -0.044 | entinostat -0.055 | vorinostat 0.083 | citarinostat -0.044 | silmitasertib -0.031 | [5] -0.057 | [6] -0.103

DOLPP1 (UniProt Q86YN1)
inactive: [2] -0.102 | [3] -0.053 | [4] -0.003 | citarinostat 0.075 | silmitasertib 0.008 | [6] -0.007

DSTYK (UniProt Q6XUX3)
inactive: [4] -0.077 | vorinostat 0.049 | citarinostat 0.161 | [5] -0.059 | [6] -0.141 | entospletinib -0.105

DNAJB2 (UniProt P25686)
inactive: vorinostat -0.018 | citarinostat 0.045 | [5] 0.042 | [6] -0.041 | entospletinib -0.036

DNAJC14 (UniProt Q6Y2X3)
inactive: [3] -0.036 | silmitasertib -0.116

Next part.

DYNC1I1 (UniProt O14576)
inactive: [4] 0.016 | [5] -0.044

DNASE1L1 (UniProt P49184)
inactive: [2] -0.067

DNAJB9 (UniProt Q9UBS3)
inactive: vorinostat 0.109

DUSP12 (UniProt V9GYV5)
inactive: [1] 0.142 | [4] -0.08 | entinostat -0.149 | [5] 0.066
